Data reported in publication PMC2734569, “Functional mapping of the fission yeast DNA polymerase δ B-subunit Cdc1 by site-directed and random pentapeptide insertion mutagenesis” (BMC Molecular Biology, 2009).
Where a chain is given by its changes, count along the chain named. These are yes or no findings as the source states them, for the method shown. Sequences can lack the tags named with a protein.

Assays:
Test in all cases: two-hybrid; LexA-Cdc1 bait (pBTM116 or pBTM116BN) with Gal4-Pol3 prey and co-expressed c-myc-tagged Cdc27 (pAA-Cdc27) in S. cerevisiae CTY10-5d; ONPG liquid culture beta-galactosidase assay, mean of triplicates, as percent of wild-type Cdc1
Cdc1-J10 = target: T1, Cdc1-J10 (Schizosaccharomyces pombe, UniProt P87324 1-462, Tyr-ArgGlyThrProTyr-Met)
T1 construct: Cdc1, S. pombe, with a pentapeptide inserted after residue 77; also called J11; E6; source: yeast two-hybrid fusion, in S. cerevisiae CTY10-5d
T1 sequence (looked up): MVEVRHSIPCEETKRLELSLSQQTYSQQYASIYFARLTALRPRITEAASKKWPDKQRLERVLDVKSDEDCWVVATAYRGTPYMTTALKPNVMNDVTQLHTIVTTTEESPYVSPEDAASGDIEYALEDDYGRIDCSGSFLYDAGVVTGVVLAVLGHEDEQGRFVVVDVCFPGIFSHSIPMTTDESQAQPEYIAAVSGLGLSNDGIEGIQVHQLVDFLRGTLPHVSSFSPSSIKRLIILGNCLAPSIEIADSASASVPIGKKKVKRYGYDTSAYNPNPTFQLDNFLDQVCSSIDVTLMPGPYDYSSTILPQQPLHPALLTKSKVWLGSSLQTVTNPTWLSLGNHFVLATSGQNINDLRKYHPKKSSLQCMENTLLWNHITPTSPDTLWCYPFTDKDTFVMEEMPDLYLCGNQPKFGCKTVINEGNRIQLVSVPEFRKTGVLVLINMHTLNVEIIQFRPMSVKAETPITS

Cdc1-J21 = target: T2, Cdc1-J21 (Schizosaccharomyces pombe, UniProt P87324 1-462, Leu-GlyValProGlnLeu-Asp)
T2 construct: Cdc1, S. pombe, with a pentapeptide inserted after residue 275; source: yeast two-hybrid fusion, in S. cerevisiae CTY10-5d
T2 sequence (looked up): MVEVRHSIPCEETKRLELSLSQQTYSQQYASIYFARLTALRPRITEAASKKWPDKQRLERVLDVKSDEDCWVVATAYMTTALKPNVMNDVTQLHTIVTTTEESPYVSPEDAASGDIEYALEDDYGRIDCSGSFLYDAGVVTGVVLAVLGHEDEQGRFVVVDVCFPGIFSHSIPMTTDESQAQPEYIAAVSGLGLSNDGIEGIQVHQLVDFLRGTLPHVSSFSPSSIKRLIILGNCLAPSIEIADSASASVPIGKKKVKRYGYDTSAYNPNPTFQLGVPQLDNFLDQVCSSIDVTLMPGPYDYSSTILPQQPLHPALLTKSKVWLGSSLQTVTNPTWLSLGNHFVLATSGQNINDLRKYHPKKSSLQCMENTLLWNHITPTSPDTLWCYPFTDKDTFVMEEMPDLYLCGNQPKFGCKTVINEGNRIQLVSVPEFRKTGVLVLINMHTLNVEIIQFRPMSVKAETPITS

Cdc1-A6 = target: T3, Cdc1-A6 (Schizosaccharomyces pombe, UniProt P87324 1-462, Pro329Ala)
T3 construct: Cdc1, S. pombe, point mutant; source: yeast two-hybrid fusion, in S. cerevisiae CTY10-5d
T3 sequence (looked up): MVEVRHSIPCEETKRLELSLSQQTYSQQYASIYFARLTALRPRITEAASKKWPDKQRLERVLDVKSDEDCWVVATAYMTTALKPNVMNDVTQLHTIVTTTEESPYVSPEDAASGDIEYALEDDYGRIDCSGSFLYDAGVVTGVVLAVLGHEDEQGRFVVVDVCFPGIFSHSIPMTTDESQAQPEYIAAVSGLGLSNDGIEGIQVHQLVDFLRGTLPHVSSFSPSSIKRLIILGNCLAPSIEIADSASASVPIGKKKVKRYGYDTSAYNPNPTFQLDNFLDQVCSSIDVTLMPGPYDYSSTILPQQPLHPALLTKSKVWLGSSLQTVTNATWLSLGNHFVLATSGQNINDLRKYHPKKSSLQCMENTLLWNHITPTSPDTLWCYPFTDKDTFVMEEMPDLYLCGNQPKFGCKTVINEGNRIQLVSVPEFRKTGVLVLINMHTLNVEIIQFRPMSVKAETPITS

Cdc1-A4 = target: T4, Cdc1-A4 (Schizosaccharomyces pombe, UniProt P87324 1-462, Pro303Ala)
T4 construct: Cdc1, S. pombe, point mutant; source: yeast two-hybrid fusion, in S. cerevisiae CTY10-5d
T4 sequence (looked up): T3 sequence (looked up) with P303A, A329P

B1: Pol3 (fission yeast DNA polymerase delta catalytic subunit) (natural protein, Schizosaccharomyces pombe, UniProt P30316 1-1086, looked up)
chain: MTDRSSNEGVVLNKENYPFPRRNGSIHGEITDVKRRRLSERNGYGDKKGSSSKEKTSSFEDELAEYASQLDQDEIKSSKDQQWQRPALPAINPEKDDIYFQQIDSEEFTEGSVPSIRLFGVTDNGNSILVHVVGFLPYFYVKAPVGFRPEMLERFTQDLDATCNGGVIDHCIIEMKENLYGFQGNEKSPFIKIFTTNPRILSRARNVFERGEFNFEELFPVGVGVTTFESNTQYLLRFMIDCDVVGMNWIHLPASKYQFRYQNRVSNCQIEAWINYKDLISLPAEGQWSKMAPLRIMSFDIECAGRKGVFPDPSIDPVIQIASIVTQYGDSTPFVRNVFCVDTCSQIVGTQVYEFQNQAEMLSSWSKFVRDVDPDVLIGYNICNFDIPYLLDRAKSLRIHNFPLLGRIHNFFSVAKETTFSSKAYGTRESKTTSIPGRLQLDMLQVMQRDFKLRSYSLNAVCSQFLGEQKEDVHYSIITDLQNGTADSRRRLAIYCLKDAYLPQRLMDKLMCFVNYTEMARVTGVPFNFLLARGQQIKVISQLFRKALQHDLVVPNIRVNGTDEQYEGATVIEPIKGYYDTPIATLDFSSLYPSIMQAHNLCYTTLLDSNTAELLKLKQDVDYSVTPNGDYFVKPHVRKGLLPIILADLLNARKKAKADLKKETDPFKKAVLDGRQLALKVSANSVYGFTGATNGRLPCLAISSSVTSYGRQMIEKTKDVVEKRYRIENGYSHDAVVIYGDTDSVMVKFGVKTLPEAMKLGEEAANYVSDQFPNPIKLEFEKVYFPYLLISKKRYAGLFWTRTDTYDKMDSKGIETVRRDNCPLVSYVIDTALRKMLIDQDVEGAQLFTKKVISDLLQNKIDMSQLVITKALSKTDYAAKMAHVELAERMRKRDAGSAPAIGDRVAYVIIKGAQGDQFYMRSEDPIYVLENNIPIDAKYYLENQLSKPLLRIFEPILGEKASSLLHGDHTRTISMAAPSVGGIMKFAVKVETCLGCKAPIKKGKTALCENCLNRSAELYQRQVAQVNDLEVRFARLWTQCQRCQGSMHQDVICTSRDCPIFYMRIAEHKKLQQSVDLLKRFDEMSW
notes: DNA polymerase delta catalytic subunit Pol3, S. pombe; prey plasmid named pACT-Pol3 in the results and pGAD2F-Pol3 in the methods; also called Gal4-Pol3; pACT-Pol3; source: yeast two-hybrid fusion, in S. cerevisiae CTY10-5d
For B1, the binding (Cdc1-J10) was “no binding (tested: <1% of wild type)”, the binding (Cdc1-J21) was “no binding (tested: <1% of wild type (Table 1))” and the binding (Cdc1-A6) was “no binding (tested: <1% of wild type)”. The binding (Cdc1-A4) was “no binding (tested: <1% of wild type (Table 1))”.
